Laboratory results from patent publication US20160214974A1 (SYNGENTA PARTICIPATIONS AG, priority 2013, published 2016).
Some of these results come from one statement about several compounds together. At least one compound was matched to its structure with a doubt left.

Assays:
[1] = test system: Q-biotype strain of Bemisia tabaci (Neonicotinoid resistant); assay: Control of neonicotinoid and pyrethroid resistant tobacco whitefly (Example B4 b); format: in vivo; details: for resistance factor: Q-biotype resistant vs susceptible strain of Bemisia tabaci; for control of the Q-biotype (Neonicotinoid resistant) strain of Bemisia tabaci: 200 ppm
[2] = test system: FRC-P strain of Myzus persicae (Neonicotinoid resistant); assay: Control of neonicotinoid resistant green peach aphid (Example B4 a); format: in vivo; details: for resistance factor (RF80): FRC-P resistant vs susceptible strain of Myzus persicae, concentration for 80% mortality; for control of the FRC-P (Neonicotinoid resistant) strain of Myzus persicae: 200 ppm

Compound | resistance factor [1] | control of the Q-biotype (Neonicotinoid resistant) strain of Bemisia tabaci [1] | resistance factor (RF80) [2] | control of the FRC-P (Neonicotinoid resistant) strain of Myzus persicae [2]
N#Cc1cncc([C@]2(C(N)=S)C[C@H]3C=C[C@@H](C2)N3CCCC(F)(F)F)c1 [E.064] | ≤ 20 |  |  | 
C#CC(C)N1[C@@H]2C=C[C@H]1C[C@](C(N)=S)(c1cncc(Br)c1)C2 (stereo partly shown) [E.016] | ≤ 20 | at least 80% |  | 
NC(=S)[C@@]1(c2cncc(Cl)c2)C[C@H]2C=C[C@@H](C1)N2CCCC(F)(F)F [E.067] | ≤ 20 |  |  | 
C=C(Cl)CN1[C@@H]2CC[C@H]1C[C@](C(N)=S)(c1cncc(Br)c1)C2 [E.006, (1S,5R)-3-(5-bromo-3-pyridyl)-8-(2-chloroallyl)-8-azabicyclo[3.2.1]octane-3-carbothioamide] | ≤ 20 |  |  | 
C=C(Cl)CN1[C@@H]2C=C[C@H]1C[C@](C(N)=S)(c1cncc(C#N)c1)C2 [E.012, (1 S,5R)-8-(2-chloroallyl)-3-(5-cyano-3-pyridyl)-8-azabicyclo[3.2.1]oct-6-ene-3-carbothioamide] | ≤ 20 |  | ≤ 20 | 
N#Cc1cncc([C@]2(C(N)=S)C[C@H]3C=C[C@@H](C2)N3CC(F)(F)F)c1 [E.066] | ≤ 20 | at least 80% |  | 
N#Cc1cncc([C@]2(C(N)=S)C[C@H]3CC[C@@H](C2)N3CCCC(F)(F)F)c1 [E.025] | ≤ 20 | at least 80% |  | 
NC(=S)[C@@]1(c2cncc(Br)c2)C[C@H]2C=C[C@@H](C1)N2C1CSC1 [E.040] | ≤ 20 | at least 80% |  | 
N#C/N=C1\SCCN1Cc1ccc(Cl)nc1 [Thiacloprid, reference compound] |  |  |  | < 80%
NC(=S)[C@@]1(c2cncc(Cl)c2)C[C@H]2CC[C@@H](C1)N2C1CC1 [E.028] | ≤ 20 | at least 80% |  | 
COCCN1[C@@H]2CC[C@H]1C[C@](C(N)=S)(c1cncc(C#N)c1)C2 [E.026] | ≤ 20 | at least 80% |  | 
N#Cc1cncc([C@]2(C(N)=S)C[C@H]3CC[C@@H](C2)N3CC(F)(F)F)c1 [E.009, (1S,5R)-3-(5-cyano-3-pyridyl)-8-(2,2,2-trifluoroethyl)-8-azabicyclo[3.2.1]octane-3-carbothioamide] | ≤ 20 |  |  | 
NC(=S)[C@@]1(c2cncc(F)c2)C[C@H]2C=C[C@@H](C1)N2CC(F)F [E.071, (1R,5S)-8-(2,2-difluoroethyl)-3-(5-fluoro-3-pyridyl)-8-azabicyclo[3.2.1]oct-6-ene-3-carbothioamide] | ≤ 20 |  |  | 
CC(F)(F)CN1[C@@H]2CC[C@H]1C[C@](C(N)=S)(c1cncc(Cl)c1)C2 [E.048] | ≤ 20 | at least 80% |  | 
C=C(C)CN1[C@@H]2C=C[C@H]1C[C@](C(N)=S)(c1cncc(Br)c1)C2 [E.044] | ≤ 20 | at least 80% |  | 
CC(F)(F)CN1[C@@H]2CC[C@H]1C[C@](C(N)=S)(c1cncc(Br)c1)C2 [E.053] | ≤ 20 | at least 80% |  | 
NC(=S)[C@@]1(c2cncc(Br)c2)C[C@H]2C=C[C@@H](C1)N2CC(F)(F)F [E.020] | ≤ 20 | at least 80% |  | 
C#CCN1[C@@H]2C=C[C@H]1C[C@](C(N)=S)(c1cncc(Br)c1)C2 [E.011] |  |  | ≤ 20 | at least 80%

Compound | resistance factor [1] | control of the Q-biotype (Neonicotinoid resistant) strain of Bemisia tabaci [1] | resistance factor (RF80) [2] | control of the FRC-P (Neonicotinoid resistant) strain of Myzus persicae [2]
N#Cc1cncc([C@]2(C(N)=S)C[C@H]3CC[C@@H](C2)N3C2CC2)c1 [E.054] | ≤ 20 | at least 80% |  | 
C=C(Cl)CN1[C@@H]2C=C[C@H]1C[C@](C(N)=S)(c1cncc(Br)c1)C2 [E.013, (1R,5S)-3-(5-bromo-3-pyridyl)-8-(2-chloroallyl)-8-azabicyclo[3.2.1]oct-6-ene-3-carbothioamide] | ≤ 20 |  |  | 
N#Cc1cncc([C@]2(C(N)=S)C[C@H]3C=C[C@@H](C2)N3C2CC2)c1 [E.047] | ≤ 20 | at least 80% |  | 
CSCCN1[C@@H]2C=C[C@H]1C[C@](C(N)=S)(c1cncc(C#N)c1)C2 [E.042] | ≤ 20 | at least 80% |  | 
O=[N+]([O-])NC1=NCCN1Cc1ccc(Cl)nc1 [Imidacloprid, reference compound] |  |  |  | < 80%
NC(=S)[C@@]1(c2cncc(Br)c2)C[C@H]2C=C[C@@H](C1)N2CCCC(F)(F)F [E.008, (1R,5S)-3-(5-bromo-3-pyridyl)-8-(4,4,4-trifluorobutyl)-8-azabicyclo[3.2.1]oct-6-ene-3-carbothioamide] | ≤ 20 |  |  | 
CC(F)(F)CN1[C@@H]2C=C[C@H]1C[C@](C(N)=S)(c1cncc(Br)c1)C2 [E.059] | ≤ 20 | at least 80% |  | 
NC(=S)[C@@]1(c2cncc(I)c2)C[C@H]2C=C[C@@H](C1)N2CC(F)F [E.039, (1 S,5R)-8-(2,2-difluoroethyl)-3-(5-iodo-3-pyridyl)-8-azabicyclo[3.2.1]oct-6-ene-3-carbothioamide] | ≤ 20 |  |  | 
C#CC(C)N1[C@@H]2CC[C@H]1C[C@](C(N)=S)(c1cncc(Cl)c1)C2 (stereo partly shown) [E.019] | ≤ 20 | at least 80% |  | 
COC(=O)C(C)N1C2C=CC1CC(C(N)=S)(c1cncc(Br)c1)C2 (mixture of isomers) [E.051] | ≤ 20 | at least 80% |  | 
CSCCN1[C@@H]2C=C[C@H]1C[C@](C(N)=S)(c1cncc(Br)c1)C2 [E.035] | ≤ 20 | at least 80% |  | 
NC(=S)[C@@]1(c2cncc(Cl)c2)C[C@H]2CC[C@@H](C1)N2CC(F)(F)F [E.002, (1S,5R)-3-(5-chloro-3-pyridyl)-8-(2,2,2-trifluoroethyl)-8-azabicyclo[3.2.1]octane-3-carbothioamide] | ≤ 20 |  |  | 
NC(=S)[C@@]1(c2cncc(I)c2)C[C@H]2CC[C@@H](C1)N2CC(F)F [E.072, (1 S,5R)-8-(2,2-difluoroethyl)-3-(5-iodo-3-pyridyl)-8-azabicyclo[3.2.1]octane-3-carbothioamide] | ≤ 20 |  |  | 
N#Cc1cncc([C@]2(C(N)=S)C[C@H]3C=C[C@@H](C2)N3CC(F)F)c1 [E.041] | ≤ 20 | at least 80% |  | 
NC(=S)[C@@]1(c2cncc(Cl)c2)C[C@H]2C=C[C@@H](C1)N2CC(F)F [E.001, (1R,5S)-3-(5-chloro-3-pyridyl)-8-(2,2-difluoroethyl)-8-azabicyclo[3.2.1]oct-6-ene-3-carbothioamide] | ≤ 20 |  |  | 
C=CCN1[C@@H]2C=C[C@H]1C[C@](C(N)=S)(c1cncc(I)c1)C2 [E.063, (1R,5S)-8-allyl-3-(5-iodo-3-pyridyl)-8-azabicyclo[3.2.1]oct-6-ene-3-carbothioamide] | ≤ 20 |  |  | 
CSCCN1[C@@H]2CC[C@H]1C[C@](C(N)=S)(c1cncc(Br)c1)C2 [E.058] | ≤ 20 | at least 80% |  | 
C=CCN1[C@@H]2C=C[C@H]1C[C@](C(N)=S)(c1cncc(C#N)c1)C2 [E.061] | ≤ 20 | at least 80% |  | 
